Experimental data taken from PubChem BioAssay AID504847 (National Center for Advancing Translational Sciences (NCATS), 2011).
In all, about 400,000 compounds went through this assay and about 3,700 (0.93%) were called active. The shares of active, inactive and inconclusive entries below differ from those in the screen. Calls follow the shape of the dose curve; as a rule, active = well fitted inhibition curve with a large enough effect; inconclusive = small, poorly fitted or top-dose-only effect, or another doubt; inactive = no such curve, though single readings can be large or run the other way. Potencies beside an inconclusive call are fits to weak or partial responses and may not hold up. A structure can be active in one record and inactive in another.

Sequences of proteins named here, by UniProt entry; tags and fusion partners are left off. A change or cut given only in a name is not applied to a line headed by its entry.
UniProt P11473: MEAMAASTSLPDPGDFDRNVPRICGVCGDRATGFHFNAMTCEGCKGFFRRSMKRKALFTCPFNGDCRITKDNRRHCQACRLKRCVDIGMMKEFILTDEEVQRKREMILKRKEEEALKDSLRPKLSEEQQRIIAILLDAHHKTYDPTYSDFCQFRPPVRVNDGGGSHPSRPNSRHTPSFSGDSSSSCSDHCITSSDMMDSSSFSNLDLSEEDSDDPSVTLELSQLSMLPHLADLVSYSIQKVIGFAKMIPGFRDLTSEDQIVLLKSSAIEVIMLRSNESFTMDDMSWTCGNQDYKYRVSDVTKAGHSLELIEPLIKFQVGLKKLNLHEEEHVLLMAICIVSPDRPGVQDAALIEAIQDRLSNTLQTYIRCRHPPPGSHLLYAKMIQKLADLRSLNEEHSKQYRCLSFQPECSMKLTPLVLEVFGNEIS

Molecular target: Vitamin D3 receptor (Homo sapiens) (UniProt P11473)
Test: Inhibitors of the vitamin D receptor (VDR): qHTS
Conditions: VDR-SRC2-3 peptide fluorescence polarization, 2 h; max response, negative = inhibition: hits give low values
Method in brief: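 Two reagent solutions held at 4 deg C in the dark were dispensed, compounds pinned at 23 nl, and the mixture incubated 2 h at room temperature. Read-out: fluorescence polarization of VDR–SRC2-3 peptide binding.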
% is scaled to controls: 0 for no effect and ±100 for the full control effect; potency is read from the fitted curve at half-maximal effect.

Potency, active:
O=c1c(-c2ccccc2)c1-c1ccccc1 44.7 µM
CCCCC(=O)NCc1ccc(F)cc1 3.16 µM
Oc1cc(O)c2c(c1)OC(c1ccc(O)c(O)c1)C(O)C2 (stereo not given) 35.5 µM
O=C1O[C@H](CN2CCOCC2)CN1/N=C\c1ccc([N+](=O)[O-])o1 28.2 µM
N#Cc1ccccc1-n1c(N)c(C(=O)N2CCCC2)sc1=S 50.1 µM

Potency, inconclusive:
Cc1ccc(N2CN(CCc3ccccc3)CNC2=S)cc1 56.2 µM [inhibitor, partial curve, poor fit]
Cc1ccc(S(=O)(=O)N2C[C@@H]3[C@H]4CC[C@H](C4)[C@@H]3[C@@H](C)C2CC(=O)c2ccccc2)cc1 (stereo not given in full) 112 µM [inhibitor, partial curve, poor fit]
N#CCCCN1C(=O)C(=C(C#N)C#N)c2ccccc21 89.1 µM [inhibitor, single point]
Cc1cc2c(cc1C)N(C(=O)CCl)CCN2C(=O)CCl 50.1 µM [inhibitor, partial curve, poor fit]
CCOc1ncccc1C(=O)Nc1ccc(Cl)cc1 28.2 µM [inhibitor, partial curve, poor fit]
CC(C)COc1cc(=O)[nH]c(SCC(C)C)n1 39.8 µM [inhibitor, partial curve, poor fit]
O=C(O)c1cccc(-n2cccc2/C=C\[N+](=O)[O-])c1 89.1 µM [inhibitor, single point]
CCC(C(=O)O)N1C(=O)/C(=C/C(C)=C/c2ccccc2)SC1=S (stereo not given) 63.1 µM [inhibitor, partial curve, poor fit]
C/C=C\C=C/C(=O)Nc1cccc(C2=NOC3(C2)C[C@H](C(N)=O)N(C(=O)c2ccc(OC)cc2)C3)c1 (stereo not given in full) 39.8 µM [inhibitor, partial curve]

Max response, negative = inhibition, inactive:
CCCCNC(=O)c1onc(CSc2ccc(F)c(F)c2)c1C(=O)NCCCC -1.26%
COc1ccccc1/C=C/C=N/n1c(-c2n[nH]c3c2CCC3)n[nH]c1=S -7.05%
COC(=O)c1ccccc1S(=O)(=O)N1CCC(C(=O)OCC(=O)NC2CCCCC2C)CC1 (stereo not given) 4.65%
Cc1ccc(C)c(S(=O)(=O)c2nnn3c2nc(NC2CCCC2)c2sccc23)c1 -1.01%
COc1ccc(C(C(=O)NC2CCCC2)N(C(=O)c2ccco2)c2ccc(OC)c(OC)c2)cc1 (stereo not given) -2.1%
Cc1ccc(S(=O)(=O)N2CCN(C(=O)COC(=O)/C=C/c3ccccc3)CC2)c(C)c1 -19.9%

Some of these compounds in order of length of the SMILES, ascending:
Max response, negative = inhibition, inactive:
COc1ccccc1/C=C/C=N/n1c(-c2n[nH]c3c2CCC3)n[nH]c1=S -7.05%
Cc1ccc(C)c(S(=O)(=O)c2nnn3c2nc(NC2CCCC2)c2sccc23)c1 -1.01%
COC(=O)c1ccccc1S(=O)(=O)N1CCC(C(=O)OCC(=O)NC2CCCCC2C)CC1 (stereo not given) 4.65%
